Measurements taken from publication PMC4669791.
No constants are given. Whether binding was seen depends on the method and setting. In cells and extracts the contact can be indirect. Some results given as binding are weak or reduced against the parent protein; the word gives no strength. For part of these data: Sequences can lack the tags named with a protein.

By UniProt entry, the sequences of proteins in these tests, tags left out. Residues count along the entry.
UniProt P38646, residues 47-679: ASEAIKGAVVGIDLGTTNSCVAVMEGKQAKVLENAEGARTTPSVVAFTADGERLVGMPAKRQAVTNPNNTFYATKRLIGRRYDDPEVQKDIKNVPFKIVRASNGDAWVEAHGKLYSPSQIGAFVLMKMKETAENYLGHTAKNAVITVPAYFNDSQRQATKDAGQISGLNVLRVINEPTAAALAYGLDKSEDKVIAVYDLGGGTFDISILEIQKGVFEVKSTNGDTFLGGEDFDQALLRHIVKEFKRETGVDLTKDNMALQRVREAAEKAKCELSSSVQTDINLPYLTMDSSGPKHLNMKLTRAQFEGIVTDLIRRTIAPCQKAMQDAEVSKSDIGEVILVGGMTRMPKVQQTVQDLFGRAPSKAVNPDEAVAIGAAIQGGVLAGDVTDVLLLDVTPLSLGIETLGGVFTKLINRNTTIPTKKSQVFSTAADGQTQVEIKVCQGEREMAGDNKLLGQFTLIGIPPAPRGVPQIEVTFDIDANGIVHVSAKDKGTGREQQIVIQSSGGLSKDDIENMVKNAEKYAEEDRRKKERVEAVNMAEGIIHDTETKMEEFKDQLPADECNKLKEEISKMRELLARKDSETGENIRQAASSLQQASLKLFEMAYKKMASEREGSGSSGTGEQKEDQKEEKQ

Legend:
[1] = biological target: Hsp60 (293 cells transiently transfected with plasmid encoding Hsp60), P10809; test: co-IP; extracts of 293 cells transiently transfected with Hsp60 and Lon plasmids; IP with anti-Hsp60 and with anti-Lon, western blot; settings: remark: other sources report otherwise
[2] = biological target: T1, Lon (293 cells transiently transfected with plasmid encoding Lon) (human), P36776; test: as above; settings: remark: other sources report otherwise
T1 chain: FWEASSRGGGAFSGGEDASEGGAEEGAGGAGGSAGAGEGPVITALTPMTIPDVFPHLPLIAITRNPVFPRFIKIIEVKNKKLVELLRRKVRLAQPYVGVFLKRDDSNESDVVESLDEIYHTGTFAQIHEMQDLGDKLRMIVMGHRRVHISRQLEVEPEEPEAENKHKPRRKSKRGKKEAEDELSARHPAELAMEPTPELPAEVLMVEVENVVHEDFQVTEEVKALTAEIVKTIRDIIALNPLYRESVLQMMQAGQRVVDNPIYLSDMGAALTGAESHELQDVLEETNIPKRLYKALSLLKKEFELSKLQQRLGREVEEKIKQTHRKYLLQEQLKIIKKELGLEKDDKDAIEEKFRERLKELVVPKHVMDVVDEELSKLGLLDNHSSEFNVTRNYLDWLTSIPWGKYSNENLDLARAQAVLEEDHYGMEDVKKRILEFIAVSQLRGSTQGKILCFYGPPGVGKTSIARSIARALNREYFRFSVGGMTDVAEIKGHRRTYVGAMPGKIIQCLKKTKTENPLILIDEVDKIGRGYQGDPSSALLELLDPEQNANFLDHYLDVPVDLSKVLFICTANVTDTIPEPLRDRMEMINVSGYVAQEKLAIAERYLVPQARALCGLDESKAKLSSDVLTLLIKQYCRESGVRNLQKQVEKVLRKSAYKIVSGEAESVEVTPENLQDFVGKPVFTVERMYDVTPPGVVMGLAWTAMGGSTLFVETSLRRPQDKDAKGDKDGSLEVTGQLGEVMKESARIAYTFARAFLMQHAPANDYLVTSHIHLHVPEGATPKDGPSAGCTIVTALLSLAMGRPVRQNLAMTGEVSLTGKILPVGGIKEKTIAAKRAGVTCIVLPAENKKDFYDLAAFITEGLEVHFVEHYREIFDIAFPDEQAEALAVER

[3] = biological target: Hsp60 (GST pull-down assay), P10809; test: pull-down; GST pull-down in vitro; approximately 0.3 μg of the GST proteins added; settings: remark: other sources report otherwise
[4] = biological target: mtHsp70 (endogenous, FADU cells) (human (endogenous in FADU)) (UniProt P38646); test: co-IP; FADU cells infected with vector or shRNAs for Hsp60, mtHsp70 or Lon; IP of endogenous proteins with anti-Lon, anti-mtHsp70 or anti-Hsp60, western blot
[5] = biological target: Hsp60 (endogenous, FADU cells) (human (endogenous in FADU)), P10809; test: as above; settings: remark: other sources report otherwise
[6] = biological target: T2, endogenous Lon (FADU cells) (human (endogenous in FADU)), P36776; test: as above; settings: remark: other sources report otherwise
T2 chain: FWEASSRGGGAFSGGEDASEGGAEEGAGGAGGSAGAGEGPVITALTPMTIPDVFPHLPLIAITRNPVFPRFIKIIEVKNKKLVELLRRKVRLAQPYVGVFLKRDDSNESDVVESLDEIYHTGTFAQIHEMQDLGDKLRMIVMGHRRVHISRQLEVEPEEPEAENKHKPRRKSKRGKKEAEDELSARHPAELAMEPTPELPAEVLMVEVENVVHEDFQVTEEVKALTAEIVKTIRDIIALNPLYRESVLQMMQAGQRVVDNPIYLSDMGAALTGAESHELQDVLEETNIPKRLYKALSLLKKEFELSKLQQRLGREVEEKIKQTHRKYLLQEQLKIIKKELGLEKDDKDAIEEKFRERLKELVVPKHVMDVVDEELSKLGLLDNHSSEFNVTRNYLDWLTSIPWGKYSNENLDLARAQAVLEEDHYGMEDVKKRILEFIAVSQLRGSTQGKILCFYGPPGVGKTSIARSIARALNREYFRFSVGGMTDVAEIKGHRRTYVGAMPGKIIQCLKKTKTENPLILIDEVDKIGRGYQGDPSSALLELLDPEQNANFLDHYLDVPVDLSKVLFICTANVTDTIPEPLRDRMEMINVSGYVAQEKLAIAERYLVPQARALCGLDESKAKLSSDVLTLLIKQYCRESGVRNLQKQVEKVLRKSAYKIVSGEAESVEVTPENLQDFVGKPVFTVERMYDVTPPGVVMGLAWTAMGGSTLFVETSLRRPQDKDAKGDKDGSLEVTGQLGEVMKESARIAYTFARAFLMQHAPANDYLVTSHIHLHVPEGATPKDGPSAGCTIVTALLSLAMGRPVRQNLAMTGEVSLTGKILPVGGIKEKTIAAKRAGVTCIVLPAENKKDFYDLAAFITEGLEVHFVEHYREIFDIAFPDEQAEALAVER

B1: Lon (293 cells transiently transfected with plasmid encoding Lon), P36776 68-959 (enzyme)
chain: FWEASSRGGGAFSGGEDASEGGAEEGAGGAGGSAGAGEGPVITALTPMTIPDVFPHLPLIAITRNPVFPRFIKIIEVKNKKLVELLRRKVRLAQPYVGVFLKRDDSNESDVVESLDEIYHTGTFAQIHEMQDLGDKLRMIVMGHRRVHISRQLEVEPEEPEAENKHKPRRKSKRGKKEAEDELSARHPAELAMEPTPELPAEVLMVEVENVVHEDFQVTEEVKALTAEIVKTIRDIIALNPLYRESVLQMMQAGQRVVDNPIYLSDMGAALTGAESHELQDVLEETNIPKRLYKALSLLKKEFELSKLQQRLGREVEEKIKQTHRKYLLQEQLKIIKKELGLEKDDKDAIEEKFRERLKELVVPKHVMDVVDEELSKLGLLDNHSSEFNVTRNYLDWLTSIPWGKYSNENLDLARAQAVLEEDHYGMEDVKKRILEFIAVSQLRGSTQGKILCFYGPPGVGKTSIARSIARALNREYFRFSVGGMTDVAEIKGHRRTYVGAMPGKIIQCLKKTKTENPLILIDEVDKIGRGYQGDPSSALLELLDPEQNANFLDHYLDVPVDLSKVLFICTANVTDTIPEPLRDRMEMINVSGYVAQEKLAIAERYLVPQARALCGLDESKAKLSSDVLTLLIKQYCRESGVRNLQKQVEKVLRKSAYKIVSGEAESVEVTPENLQDFVGKPVFTVERMYDVTPPGVVMGLAWTAMGGSTLFVETSLRRPQDKDAKGDKDGSLEVTGQLGEVMKESARIAYTFARAFLMQHAPANDYLVTSHIHLHVPEGATPKDGPSAGCTIVTALLSLAMGRPVRQNLAMTGEVSLTGKILPVGGIKEKTIAAKRAGVTCIVLPAENKKDFYDLAAFITEGLEVHFVEHYREIFDIAFPDEQAEALAVER
binding [1]: binds

B2: Hsp60 (293 cells transiently transfected with plasmid encoding Hsp60), P10809 27-573 (protein)
chain: AKDVKFGADARALMLQGVDLLADAVAVTMGPKGRTVIIEQSWGSPKVTKDGVTVAKSIDLKDKYKNIGAKLVQDVANNTNEEAGDGTTTATVLARSIAKEGFEKISKGANPVEIRRGVMLAVDAVIAELKKQSKPVTTPEEIAQVATISANGDKEIGNIISDAMKKVGRKGVITVKDGKTLNDELEIIEGMKFDRGYISPYFINTSKGQKCEFQDAYVLLSEKKISSIQSIVPALEIANAHRKPLVIIAEDVDGEALSTLVLNRLKVGLQVVAVKAPGFGDNRKNQLKDMAIATGGAVFGEEGLTLNLEDVQPHDLGKVGEVIVTKDDAMLLKGKGDKAQIEKRIQEIIEQLDVTTSEYEKEKLNERLAKLSDGVAVLKVGGTSDVEVNEKKDRVTDALNATRAAVEEGIVLGGGCALLRCIPALDSLTPANEDQKIGIEIIKRTLKIPAMTIAKNAGVEGSLIVEKIMQSSSEVGYDAMAGDFVNMVEKGIIDPTKVVRTALLDAAGVASLLTTAEVVVTEIPKEEKDPGMGAMGGMGGGMGGGMF
binding [2]: binds

B3: Lon (GST pull-down assay), P36776 68-959 (enzyme)
chain: FWEASSRGGGAFSGGEDASEGGAEEGAGGAGGSAGAGEGPVITALTPMTIPDVFPHLPLIAITRNPVFPRFIKIIEVKNKKLVELLRRKVRLAQPYVGVFLKRDDSNESDVVESLDEIYHTGTFAQIHEMQDLGDKLRMIVMGHRRVHISRQLEVEPEEPEAENKHKPRRKSKRGKKEAEDELSARHPAELAMEPTPELPAEVLMVEVENVVHEDFQVTEEVKALTAEIVKTIRDIIALNPLYRESVLQMMQAGQRVVDNPIYLSDMGAALTGAESHELQDVLEETNIPKRLYKALSLLKKEFELSKLQQRLGREVEEKIKQTHRKYLLQEQLKIIKKELGLEKDDKDAIEEKFRERLKELVVPKHVMDVVDEELSKLGLLDNHSSEFNVTRNYLDWLTSIPWGKYSNENLDLARAQAVLEEDHYGMEDVKKRILEFIAVSQLRGSTQGKILCFYGPPGVGKTSIARSIARALNREYFRFSVGGMTDVAEIKGHRRTYVGAMPGKIIQCLKKTKTENPLILIDEVDKIGRGYQGDPSSALLELLDPEQNANFLDHYLDVPVDLSKVLFICTANVTDTIPEPLRDRMEMINVSGYVAQEKLAIAERYLVPQARALCGLDESKAKLSSDVLTLLIKQYCRESGVRNLQKQVEKVLRKSAYKIVSGEAESVEVTPENLQDFVGKPVFTVERMYDVTPPGVVMGLAWTAMGGSTLFVETSLRRPQDKDAKGDKDGSLEVTGQLGEVMKESARIAYTFARAFLMQHAPANDYLVTSHIHLHVPEGATPKDGPSAGCTIVTALLSLAMGRPVRQNLAMTGEVSLTGKILPVGGIKEKTIAAKRAGVTCIVLPAENKKDFYDLAAFITEGLEVHFVEHYREIFDIAFPDEQAEALAVER
binding [3]: binds

B4: endogenous Lon (FADU cells) (enzyme, UniProt P36776 68-959)
chain: FWEASSRGGGAFSGGEDASEGGAEEGAGGAGGSAGAGEGPVITALTPMTIPDVFPHLPLIAITRNPVFPRFIKIIEVKNKKLVELLRRKVRLAQPYVGVFLKRDDSNESDVVESLDEIYHTGTFAQIHEMQDLGDKLRMIVMGHRRVHISRQLEVEPEEPEAENKHKPRRKSKRGKKEAEDELSARHPAELAMEPTPELPAEVLMVEVENVVHEDFQVTEEVKALTAEIVKTIRDIIALNPLYRESVLQMMQAGQRVVDNPIYLSDMGAALTGAESHELQDVLEETNIPKRLYKALSLLKKEFELSKLQQRLGREVEEKIKQTHRKYLLQEQLKIIKKELGLEKDDKDAIEEKFRERLKELVVPKHVMDVVDEELSKLGLLDNHSSEFNVTRNYLDWLTSIPWGKYSNENLDLARAQAVLEEDHYGMEDVKKRILEFIAVSQLRGSTQGKILCFYGPPGVGKTSIARSIARALNREYFRFSVGGMTDVAEIKGHRRTYVGAMPGKIIQCLKKTKTENPLILIDEVDKIGRGYQGDPSSALLELLDPEQNANFLDHYLDVPVDLSKVLFICTANVTDTIPEPLRDRMEMINVSGYVAQEKLAIAERYLVPQARALCGLDESKAKLSSDVLTLLIKQYCRESGVRNLQKQVEKVLRKSAYKIVSGEAESVEVTPENLQDFVGKPVFTVERMYDVTPPGVVMGLAWTAMGGSTLFVETSLRRPQDKDAKGDKDGSLEVTGQLGEVMKESARIAYTFARAFLMQHAPANDYLVTSHIHLHVPEGATPKDGPSAGCTIVTALLSLAMGRPVRQNLAMTGEVSLTGKILPVGGIKEKTIAAKRAGVTCIVLPAENKKDFYDLAAFITEGLEVHFVEHYREIFDIAFPDEQAEALAVER
binding [4]: binds

B5: endogenous Lon (FADU cells), P36776 68-959 (enzyme)
chain: FWEASSRGGGAFSGGEDASEGGAEEGAGGAGGSAGAGEGPVITALTPMTIPDVFPHLPLIAITRNPVFPRFIKIIEVKNKKLVELLRRKVRLAQPYVGVFLKRDDSNESDVVESLDEIYHTGTFAQIHEMQDLGDKLRMIVMGHRRVHISRQLEVEPEEPEAENKHKPRRKSKRGKKEAEDELSARHPAELAMEPTPELPAEVLMVEVENVVHEDFQVTEEVKALTAEIVKTIRDIIALNPLYRESVLQMMQAGQRVVDNPIYLSDMGAALTGAESHELQDVLEETNIPKRLYKALSLLKKEFELSKLQQRLGREVEEKIKQTHRKYLLQEQLKIIKKELGLEKDDKDAIEEKFRERLKELVVPKHVMDVVDEELSKLGLLDNHSSEFNVTRNYLDWLTSIPWGKYSNENLDLARAQAVLEEDHYGMEDVKKRILEFIAVSQLRGSTQGKILCFYGPPGVGKTSIARSIARALNREYFRFSVGGMTDVAEIKGHRRTYVGAMPGKIIQCLKKTKTENPLILIDEVDKIGRGYQGDPSSALLELLDPEQNANFLDHYLDVPVDLSKVLFICTANVTDTIPEPLRDRMEMINVSGYVAQEKLAIAERYLVPQARALCGLDESKAKLSSDVLTLLIKQYCRESGVRNLQKQVEKVLRKSAYKIVSGEAESVEVTPENLQDFVGKPVFTVERMYDVTPPGVVMGLAWTAMGGSTLFVETSLRRPQDKDAKGDKDGSLEVTGQLGEVMKESARIAYTFARAFLMQHAPANDYLVTSHIHLHVPEGATPKDGPSAGCTIVTALLSLAMGRPVRQNLAMTGEVSLTGKILPVGGIKEKTIAAKRAGVTCIVLPAENKKDFYDLAAFITEGLEVHFVEHYREIFDIAFPDEQAEALAVER
binding [5]: binds

B6: Hsp60 (endogenous, FADU cells), P10809 27-573 (protein)
chain: AKDVKFGADARALMLQGVDLLADAVAVTMGPKGRTVIIEQSWGSPKVTKDGVTVAKSIDLKDKYKNIGAKLVQDVANNTNEEAGDGTTTATVLARSIAKEGFEKISKGANPVEIRRGVMLAVDAVIAELKKQSKPVTTPEEIAQVATISANGDKEIGNIISDAMKKVGRKGVITVKDGKTLNDELEIIEGMKFDRGYISPYFINTSKGQKCEFQDAYVLLSEKKISSIQSIVPALEIANAHRKPLVIIAEDVDGEALSTLVLNRLKVGLQVVAVKAPGFGDNRKNQLKDMAIATGGAVFGEEGLTLNLEDVQPHDLGKVGEVIVTKDDAMLLKGKGDKAQIEKRIQEIIEQLDVTTSEYEKEKLNERLAKLSDGVAVLKVGGTSDVEVNEKKDRVTDALNATRAAVEEGIVLGGGCALLRCIPALDSLTPANEDQKIGIEIIKRTLKIPAMTIAKNAGVEGSLIVEKIMQSSSEVGYDAMAGDFVNMVEKGIIDPTKVVRTALLDAAGVASLLTTAEVVVTEIPKEEKDPGMGAMGGMGGGMGGGMF
binding [6]: binds
